Results are given in words; binding and its absence hold for the method and conditions named. In cells and extracts the contact can be indirect. Some binding calls cover weakened binding; strength is not graded here. For part of these data: Where a sequence is shown, tags or fusion partners need not be part of it.
Key:
Experiment in all cases: co-IP; pulldown of GFP- or YFP-tagged fusion proteins with GFP Trap beads from U2OS lysates; EBC-150 buffer (50 mM Tris pH 7.5, 150 mM NaCl, 0.5% NP-40, 1 mM EDTA) with Benzonase; washes with 150/300 mM NaCl; immunoblot
[1] = biological target: GFP-tagged RNF168 (GFP-RNF168^WT) (human) (UniProt Q8IYW5)
YFP-PALB2^WT (human) = biological target: T1, YFP-PALB2^WT (human) (UniProt Q86YC2)
T1 sequence: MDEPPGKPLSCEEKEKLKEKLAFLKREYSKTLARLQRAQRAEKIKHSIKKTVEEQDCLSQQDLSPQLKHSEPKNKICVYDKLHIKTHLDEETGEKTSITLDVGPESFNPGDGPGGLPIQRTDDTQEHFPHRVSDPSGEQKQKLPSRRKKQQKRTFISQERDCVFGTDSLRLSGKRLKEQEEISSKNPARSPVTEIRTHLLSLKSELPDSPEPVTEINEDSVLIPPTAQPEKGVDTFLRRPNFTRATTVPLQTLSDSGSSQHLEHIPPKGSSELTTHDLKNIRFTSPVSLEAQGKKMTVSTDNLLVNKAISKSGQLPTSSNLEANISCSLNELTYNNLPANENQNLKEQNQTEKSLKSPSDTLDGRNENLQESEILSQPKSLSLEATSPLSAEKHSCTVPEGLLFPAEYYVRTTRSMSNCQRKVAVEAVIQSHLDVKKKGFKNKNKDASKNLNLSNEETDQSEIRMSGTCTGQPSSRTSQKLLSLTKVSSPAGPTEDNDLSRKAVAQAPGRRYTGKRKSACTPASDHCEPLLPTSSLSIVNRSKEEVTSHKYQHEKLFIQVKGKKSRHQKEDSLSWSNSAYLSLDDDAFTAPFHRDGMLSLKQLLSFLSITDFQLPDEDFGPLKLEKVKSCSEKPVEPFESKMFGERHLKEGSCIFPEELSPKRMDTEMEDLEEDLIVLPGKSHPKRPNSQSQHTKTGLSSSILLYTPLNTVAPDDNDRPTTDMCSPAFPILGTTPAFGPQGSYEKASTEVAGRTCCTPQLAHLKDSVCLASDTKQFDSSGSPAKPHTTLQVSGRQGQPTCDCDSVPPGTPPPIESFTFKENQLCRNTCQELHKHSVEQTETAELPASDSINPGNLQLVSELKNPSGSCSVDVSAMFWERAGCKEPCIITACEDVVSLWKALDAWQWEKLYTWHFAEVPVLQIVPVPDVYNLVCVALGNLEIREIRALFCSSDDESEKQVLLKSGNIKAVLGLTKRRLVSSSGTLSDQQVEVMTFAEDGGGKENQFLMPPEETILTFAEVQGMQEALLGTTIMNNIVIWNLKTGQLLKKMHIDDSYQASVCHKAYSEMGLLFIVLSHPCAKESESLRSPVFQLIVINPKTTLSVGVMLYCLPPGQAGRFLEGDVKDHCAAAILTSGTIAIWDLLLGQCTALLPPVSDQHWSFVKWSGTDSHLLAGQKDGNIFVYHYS

By UniProt entry, the sequences of proteins in these tests, tags left out.
UniProt Q8IYW5: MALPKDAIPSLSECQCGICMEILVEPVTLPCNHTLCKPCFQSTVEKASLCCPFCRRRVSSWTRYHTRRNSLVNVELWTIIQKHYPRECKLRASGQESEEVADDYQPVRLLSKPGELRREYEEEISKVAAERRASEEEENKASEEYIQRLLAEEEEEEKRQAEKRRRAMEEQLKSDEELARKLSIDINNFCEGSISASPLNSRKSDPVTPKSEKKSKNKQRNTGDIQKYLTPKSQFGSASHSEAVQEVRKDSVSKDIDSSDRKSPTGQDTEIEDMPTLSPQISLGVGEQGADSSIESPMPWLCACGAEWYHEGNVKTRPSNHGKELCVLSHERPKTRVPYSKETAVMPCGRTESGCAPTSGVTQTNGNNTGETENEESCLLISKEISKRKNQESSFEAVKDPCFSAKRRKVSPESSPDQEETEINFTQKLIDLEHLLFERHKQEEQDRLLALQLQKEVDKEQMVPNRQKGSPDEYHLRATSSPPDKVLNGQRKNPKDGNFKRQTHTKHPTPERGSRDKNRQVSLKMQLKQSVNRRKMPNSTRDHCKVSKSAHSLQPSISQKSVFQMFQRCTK
UniProt P51587: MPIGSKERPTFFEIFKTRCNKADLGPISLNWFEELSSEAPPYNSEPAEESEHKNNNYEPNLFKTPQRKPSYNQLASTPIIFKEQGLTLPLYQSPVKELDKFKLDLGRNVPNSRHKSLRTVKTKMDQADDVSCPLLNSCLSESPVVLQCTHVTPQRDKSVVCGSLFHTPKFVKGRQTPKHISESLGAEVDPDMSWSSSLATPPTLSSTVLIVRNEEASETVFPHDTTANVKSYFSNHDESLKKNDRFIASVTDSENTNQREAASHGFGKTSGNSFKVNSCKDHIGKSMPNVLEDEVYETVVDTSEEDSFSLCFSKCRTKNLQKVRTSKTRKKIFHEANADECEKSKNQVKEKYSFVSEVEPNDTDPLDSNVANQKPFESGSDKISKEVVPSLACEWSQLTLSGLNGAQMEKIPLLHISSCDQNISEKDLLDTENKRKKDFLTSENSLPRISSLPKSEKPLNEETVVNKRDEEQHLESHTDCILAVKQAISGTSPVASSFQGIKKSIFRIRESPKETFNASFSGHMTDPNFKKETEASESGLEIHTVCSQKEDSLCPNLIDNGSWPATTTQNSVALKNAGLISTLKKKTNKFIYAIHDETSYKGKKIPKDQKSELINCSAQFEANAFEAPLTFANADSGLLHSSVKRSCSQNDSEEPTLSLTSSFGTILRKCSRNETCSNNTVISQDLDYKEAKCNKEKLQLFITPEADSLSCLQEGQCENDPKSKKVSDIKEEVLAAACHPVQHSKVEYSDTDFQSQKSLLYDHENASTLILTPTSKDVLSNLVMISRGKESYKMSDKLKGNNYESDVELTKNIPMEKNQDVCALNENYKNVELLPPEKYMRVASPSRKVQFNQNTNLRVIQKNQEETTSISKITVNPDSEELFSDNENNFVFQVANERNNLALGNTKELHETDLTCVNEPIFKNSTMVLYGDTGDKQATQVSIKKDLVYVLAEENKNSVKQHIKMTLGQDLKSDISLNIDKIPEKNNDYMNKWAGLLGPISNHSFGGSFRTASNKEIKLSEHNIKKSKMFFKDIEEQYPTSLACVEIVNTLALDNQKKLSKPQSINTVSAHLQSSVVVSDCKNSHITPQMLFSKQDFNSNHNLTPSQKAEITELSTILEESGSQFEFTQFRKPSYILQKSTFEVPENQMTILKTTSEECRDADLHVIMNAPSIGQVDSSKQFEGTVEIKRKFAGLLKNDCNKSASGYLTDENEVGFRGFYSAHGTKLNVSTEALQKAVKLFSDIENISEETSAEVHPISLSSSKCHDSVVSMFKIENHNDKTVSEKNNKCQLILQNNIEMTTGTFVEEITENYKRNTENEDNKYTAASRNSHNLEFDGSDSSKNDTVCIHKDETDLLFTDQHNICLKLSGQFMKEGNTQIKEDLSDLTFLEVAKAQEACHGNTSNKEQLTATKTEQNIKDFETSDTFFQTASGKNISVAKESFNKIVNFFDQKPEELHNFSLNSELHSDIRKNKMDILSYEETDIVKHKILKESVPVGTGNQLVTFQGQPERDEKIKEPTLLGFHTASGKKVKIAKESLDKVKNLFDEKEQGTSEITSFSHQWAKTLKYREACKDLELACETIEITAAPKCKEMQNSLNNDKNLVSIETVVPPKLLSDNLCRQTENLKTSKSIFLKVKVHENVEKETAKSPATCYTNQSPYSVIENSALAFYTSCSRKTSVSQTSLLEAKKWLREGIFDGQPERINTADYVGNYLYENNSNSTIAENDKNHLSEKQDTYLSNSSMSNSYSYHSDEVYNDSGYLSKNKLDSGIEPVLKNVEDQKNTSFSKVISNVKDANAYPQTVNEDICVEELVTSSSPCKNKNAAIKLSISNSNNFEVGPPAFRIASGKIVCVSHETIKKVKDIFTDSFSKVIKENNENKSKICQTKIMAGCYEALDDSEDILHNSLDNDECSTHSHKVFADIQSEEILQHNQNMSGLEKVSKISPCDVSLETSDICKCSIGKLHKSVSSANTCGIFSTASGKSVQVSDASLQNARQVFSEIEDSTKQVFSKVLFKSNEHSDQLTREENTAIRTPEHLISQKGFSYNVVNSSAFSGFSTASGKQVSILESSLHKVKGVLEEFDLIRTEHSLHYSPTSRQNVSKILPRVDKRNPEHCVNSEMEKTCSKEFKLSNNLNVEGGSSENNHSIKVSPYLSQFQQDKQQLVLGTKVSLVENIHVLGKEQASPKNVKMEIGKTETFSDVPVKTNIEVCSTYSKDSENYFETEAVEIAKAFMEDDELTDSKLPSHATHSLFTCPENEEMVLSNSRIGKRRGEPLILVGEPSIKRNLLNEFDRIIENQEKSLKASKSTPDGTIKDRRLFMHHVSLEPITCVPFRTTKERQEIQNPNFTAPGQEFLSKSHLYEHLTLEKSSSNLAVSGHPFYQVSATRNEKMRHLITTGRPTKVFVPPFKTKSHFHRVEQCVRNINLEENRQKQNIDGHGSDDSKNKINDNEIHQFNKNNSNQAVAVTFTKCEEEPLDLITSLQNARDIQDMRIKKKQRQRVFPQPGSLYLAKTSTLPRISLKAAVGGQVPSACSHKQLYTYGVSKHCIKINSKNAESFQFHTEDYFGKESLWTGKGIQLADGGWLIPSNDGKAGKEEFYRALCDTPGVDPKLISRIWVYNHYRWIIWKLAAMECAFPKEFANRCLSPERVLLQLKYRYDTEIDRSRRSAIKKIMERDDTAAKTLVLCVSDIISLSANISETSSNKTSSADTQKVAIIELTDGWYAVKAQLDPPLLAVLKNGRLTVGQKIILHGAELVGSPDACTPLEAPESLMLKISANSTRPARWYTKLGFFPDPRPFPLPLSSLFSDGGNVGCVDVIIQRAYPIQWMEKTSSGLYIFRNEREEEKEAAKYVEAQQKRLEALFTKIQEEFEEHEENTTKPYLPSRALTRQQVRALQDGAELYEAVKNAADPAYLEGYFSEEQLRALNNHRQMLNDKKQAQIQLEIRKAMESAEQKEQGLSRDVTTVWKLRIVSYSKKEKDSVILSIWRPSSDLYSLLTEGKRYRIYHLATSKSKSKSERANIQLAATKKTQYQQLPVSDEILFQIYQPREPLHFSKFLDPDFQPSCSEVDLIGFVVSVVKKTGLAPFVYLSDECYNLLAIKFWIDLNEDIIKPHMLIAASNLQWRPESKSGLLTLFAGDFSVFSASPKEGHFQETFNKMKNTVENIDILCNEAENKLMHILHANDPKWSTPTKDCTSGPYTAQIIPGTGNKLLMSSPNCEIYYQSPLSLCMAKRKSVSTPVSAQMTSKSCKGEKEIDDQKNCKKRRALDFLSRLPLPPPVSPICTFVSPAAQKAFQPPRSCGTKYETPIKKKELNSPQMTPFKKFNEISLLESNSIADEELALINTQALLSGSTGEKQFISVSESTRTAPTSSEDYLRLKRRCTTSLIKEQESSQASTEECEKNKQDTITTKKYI

[2] = biological target: T2, YFP-PALB2^ΔWD40 (T7) (human) (UniProt Q86YC2)
T2 sequence: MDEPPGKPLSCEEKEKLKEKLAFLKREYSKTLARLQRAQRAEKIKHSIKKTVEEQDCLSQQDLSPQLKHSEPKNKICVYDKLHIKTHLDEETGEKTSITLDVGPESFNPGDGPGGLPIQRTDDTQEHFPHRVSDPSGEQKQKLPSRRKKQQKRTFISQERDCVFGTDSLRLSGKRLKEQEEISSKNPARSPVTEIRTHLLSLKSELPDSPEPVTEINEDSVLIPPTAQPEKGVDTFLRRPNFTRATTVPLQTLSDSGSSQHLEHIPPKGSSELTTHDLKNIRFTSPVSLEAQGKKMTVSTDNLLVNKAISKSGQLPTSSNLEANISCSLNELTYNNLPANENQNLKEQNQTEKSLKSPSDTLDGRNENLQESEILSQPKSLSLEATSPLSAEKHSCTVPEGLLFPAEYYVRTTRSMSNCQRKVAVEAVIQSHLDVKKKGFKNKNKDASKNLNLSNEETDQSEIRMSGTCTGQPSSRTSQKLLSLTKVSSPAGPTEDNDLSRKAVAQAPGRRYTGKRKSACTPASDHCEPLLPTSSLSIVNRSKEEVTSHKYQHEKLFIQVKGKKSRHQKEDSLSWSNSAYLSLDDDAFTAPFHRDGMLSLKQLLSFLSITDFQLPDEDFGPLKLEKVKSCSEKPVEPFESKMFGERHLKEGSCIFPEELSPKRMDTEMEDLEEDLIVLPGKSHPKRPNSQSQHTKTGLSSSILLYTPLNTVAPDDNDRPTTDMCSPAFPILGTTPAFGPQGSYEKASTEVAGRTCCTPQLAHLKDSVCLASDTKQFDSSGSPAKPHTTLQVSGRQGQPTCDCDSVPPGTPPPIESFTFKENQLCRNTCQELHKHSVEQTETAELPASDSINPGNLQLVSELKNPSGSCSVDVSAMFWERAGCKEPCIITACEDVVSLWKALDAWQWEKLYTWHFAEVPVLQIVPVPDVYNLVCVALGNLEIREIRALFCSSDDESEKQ

Substance	binding [1]	binding (YFP-PALB2^WT (human))	binding [2]
endogenous BRCA2 (from UniProt P51587 1-3418)	binds		
mCherry-RNF168 (from UniProt Q8IYW5 1-571)		binds	binds weakly
